Construct, isoform or probe ends are uncertain for at least one entry.
Biological target: TATA-binding protein (hTBP) (Homo sapiens) (UniProt P20226)
Experiment: EMSA (kinetic, kd/ka)
Conditions: EMSA with 32P-labelled 26 bp duplexes; binding buffer; recombinant protein; residues 1-339; label: 32P (both strands)

Protein sequences, listed by entry. Tags and fused reporters are not part of them.
UniProt P20226, whole entry: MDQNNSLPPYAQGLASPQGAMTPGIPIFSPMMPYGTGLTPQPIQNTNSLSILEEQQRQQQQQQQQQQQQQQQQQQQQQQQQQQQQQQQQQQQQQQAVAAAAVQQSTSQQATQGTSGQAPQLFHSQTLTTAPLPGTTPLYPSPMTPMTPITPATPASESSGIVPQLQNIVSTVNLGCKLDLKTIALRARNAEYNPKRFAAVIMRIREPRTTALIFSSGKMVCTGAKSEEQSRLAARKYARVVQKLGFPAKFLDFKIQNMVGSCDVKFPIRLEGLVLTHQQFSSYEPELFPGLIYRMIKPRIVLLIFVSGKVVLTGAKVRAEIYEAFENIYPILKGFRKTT

## CACGTACATATTTTTTGTCTGCTACG (double strand) [EPOR rs567946217:A (-31C>A, ODN 8)]
  Kd: 0.021 µM

Source: PMC7579878, “Unannotated single nucleotide polymorphisms in the TATA box of erythropoiesis genes show in vitro positive involvements in cognitive and mental disorders”
